Data taken from PubChem BioAssay AID256 (DTP/NCI, 2004).
The list does not hold the whole screen: it gathers tests that were run many times, whatever their T/C, doses with no T/C, and many T/C values between a quarter and a half above the control. Other doses and runs of a compound stand elsewhere. T/C: endpoint of the treated group in % of that of the vehicle group. Some entries give survivors of the animals treated and no T/C: the source holds a T/C of zero for them, seemingly a mark for toxic or unscored doses. Some doses without a T/C left all or most animals alive at the check, yet need not have been tolerated: the source hardly ever lists a survival T/C far under the control, and the zero likely stands for such cases as well. Survivors were counted at the toxicity check, usually on the fifth day, unless a day is given; later deaths do not show. Schedule codes are those of the source, read here as Q, the interval in days (D) or hours (H), X, the number of doses. For survival time, this PubChem deposit counts one and a half times the control or more as active, and values a quarter to a half above the control carry no call in these data; other NCI protocols may use other cut-offs. Some doses were run more than once; the results are listed from low to high.

Tested on: CD2F1 mice, L1210 leukemia ip, survival T/C
Assay: NCI In Vivo Anticancer Drug Screen. Data for tumor model L1210 Leukemia (intraperitoneal) in CD2F1 (CDF1) mice
Conditions: higher T/C = longer survival
Outline: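 Ratio T/C, where T is the treated-group value and C the vehicle-dosed control value, from mice implanted with a transplantable tumor.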

[1] = T/C endpoint: mean survival time, dose: 200.0 mg/kg/injection, schedule: Q01DX001 (ip), vehicle: saline with Tween-80
[2] = T/C endpoint: mean survival time, dose: 400.0 mg/kg/injection, schedule: Q01DX001 (ip), vehicle: saline with Tween-80
[3] = T/C endpoint: mean survival time, dose: 100.0 mg/kg/injection, schedule: Q01DX009 (ip), vehicle: saline with Tween-80

Compound: CCOC(=O)CCC(NC(=O)c1ccc(N(CC)Cc2cnc3nc(N)nc(N)c3n2)cc1)C(=O)OCC (stereo not drawn)
- T/C (T/C endpoint: mean survival time, dose: 0.39 mg/kg/injection, schedule: Q01DX009 (ip), vehicle: Klucel (hydroxypropylcellulose) (HPC)): 133 % of control
- T/C (T/C endpoint: mean survival time, dose: 0.78 mg/kg/injection, schedule: Q01DX009 (ip), vehicle: Klucel (hydroxypropylcellulose) (HPC)): 143 % of control
- T/C (T/C endpoint: mean survival time, dose: 1.56 mg/kg/injection, schedule: Q01DX009 (ip), vehicle: Klucel (hydroxypropylcellulose) (HPC)): 142 % of control
- T/C (T/C endpoint: mean survival time, dose: 3.12 mg/kg/injection, schedule: Q01DX009 (ip), vehicle: Klucel (hydroxypropylcellulose) (HPC)): 130 and 141 % of control
- survivor count (T/C endpoint: mean survival time, dose: 6.25 mg/kg/injection, schedule: Q01DX009 (ip), vehicle: Klucel (hydroxypropylcellulose) (HPC)): 3 of 6
- survivor count (T/C endpoint: mean survival time, dose: 12.5 mg/kg/injection, schedule: Q01DX009 (ip), vehicle: Klucel (hydroxypropylcellulose) (HPC)): 6 of 6
- survivor count (T/C endpoint: mean survival time, dose: 25.0 mg/kg/injection, schedule: Q01DX009 (ip), vehicle: Klucel (hydroxypropylcellulose) (HPC)): 3 of 6
- survivor count (T/C endpoint: mean survival time, dose: 100.0 mg/kg/injection, schedule: Q01DX001 (ip), vehicle: Klucel (hydroxypropylcellulose) (HPC)): 1 of 4
- survivor count (T/C endpoint: mean survival time, dose: 200.0 mg/kg/injection, schedule: Q01DX001 (ip), vehicle: Klucel (hydroxypropylcellulose) (HPC)): 1 of 5
- survivor count (T/C endpoint: mean survival time, dose: 400.0 mg/kg/injection, schedule: Q01DX001 (ip), vehicle: Klucel (hydroxypropylcellulose) (HPC)): 1 of 5

Compound: O=CC(=O)c1ccc(O)cc1
- survivor count (T/C endpoint: mean survival time, dose: 200.0 mg/kg/injection, schedule: Q01DX009 (ip), vehicle: saline): 4 of 6

Compound: C[S+](C)C
- survivor count (T/C endpoint: mean survival time, dose: 100.0 mg/kg/injection, schedule: Q01DX009 (ip), vehicle: saline): 0 of 6

Compound: Cc1ncc(COP(=O)(O)O)c(C=NC(C)C(=O)O)c1O.O.[Cu] (stereo not drawn)
- survivor count (T/C endpoint: mean survival time, dose: 100.0 mg/kg/injection, schedule: Q01DX001 (ip), vehicle: saline with Tween-80): 0 of 3
- survivor count [1]: 0 of 3
- survivor count [2]: 0 of 3

Compound: COc1ccc(NC(=O)Nc2cccc(Cl)c2)c(Cl)c1
- survivor count (T/C endpoint: mean survival time, dose: 100.0 mg/kg/injection, schedule: Q04DX002 (ip), vehicle: saline with Tween-80): 3 of 3
- survivor count (T/C endpoint: mean survival time, dose: 200.0 mg/kg/injection, schedule: Q04DX002 (ip), vehicle: saline with Tween-80): 3 of 3

Compound: O=P(O)(c1ccccc1CBr)c1ccccc1CBr
- survivor count (T/C endpoint: mean survival time, dose: 150.0 mg/kg/injection, schedule: Q01DX001 (ip), vehicle: saline): 0 of 6
- survivor count (T/C endpoint: mean survival time, dose: 300.0 mg/kg/injection, schedule: Q01DX001 (ip), vehicle: saline): 0 of 6

Compound: CCO/N=C(\N)c1ccccc1
- survivor count (T/C endpoint: mean survival time, dose: 400.0 mg/kg/injection, schedule: Q01DX009 (ip), vehicle: saline with Tween-80): 3 of 6

Compound: Cc1ccc(NC(=O)OCCOc2ccccc2Cl)cc1[N+](=O)[O-]
- survivor count [3]: 3 of 3
- survivor count (T/C endpoint: mean survival time, dose: 200.0 mg/kg/injection, schedule: Q01DX009 (ip), vehicle: saline with Tween-80): 3 of 3

Compound: C1SCc2c1c1c(c3c2CSC3)CSC1
- survivor count [1]: 6 of 6

Compound: CCOc1ccc(NC2OC(CO)C(O)C(O)C2O)cc1 (stereo not drawn)
- survivor count (T/C endpoint: mean survival time, dose: 400.0 mg/kg/injection, schedule: Q01DX001 (ip), vehicle: saline): 0 of 4

Compound: CCNC(=S)N(Cc1ccccc1)Cc1ccccc1
- survivor count (T/C endpoint: mean survival time, dose: 200.0 mg/kg/injection, schedule: Q04DX003 (ip), vehicle: saline with Tween-80): 6 of 6

Compound: CNCCN=c1ccc2c3c1c(O)c1c(O)ccc(=O)c1c3[nH]n2CCNCCO
- survivor count (T/C endpoint: median survival time, dose: 12.5 mg/kg/injection, schedule: Q01DX009 (ip), vehicle: water): 6 of 6
- survivor count (T/C endpoint: median survival time, dose: 25.0 mg/kg/injection, schedule: Q01DX009 (ip), vehicle: water): 3 of 6
- survivor count (T/C endpoint: median survival time, dose: 50.0 mg/kg/injection, schedule: Q01DX009 (ip), vehicle: water): 0 of 6

Compound: ClC1C(c2ccccc2)=C(c2ccccc2)c2ccccc21 (stereo not drawn)
- survivor count [3]: 5 of 6
- survivor count [2]: 5 of 6

Compound: Cc1cccc2c1NC(=O)C2=O
- survivor count (T/C endpoint: median survival time, dose: 50.0 mg/kg/injection, schedule: Q04DX002 (ip), vehicle: saline with Tween-80): 3 of 3
- survivor count (T/C endpoint: median survival time, dose: 200.0 mg/kg/injection, schedule: Q04DX002 (ip), vehicle: saline with Tween-80): 3 of 3

Compound: CN(C)CCCNC/C=C\CNCCCN(C)C
- survivor count (T/C endpoint: mean survival time, dose: 400.0 mg/kg/injection, schedule: Q04DX003 (ip), vehicle: saline): 4 of 6
